Experimental data from patent publication US7115617B2, “Amino-substituted pyrimidinyl derivatives and methods of use” (Amgen Inc., priority 2001, dated 2006).
pIC50: −log10 of the molar value. Some entries share one result that the patent states for a list of compounds.

By UniProt entry, the sequences of proteins in these tests, tags left out. Residues count along the entry.
UniProt P08069, 31-1367: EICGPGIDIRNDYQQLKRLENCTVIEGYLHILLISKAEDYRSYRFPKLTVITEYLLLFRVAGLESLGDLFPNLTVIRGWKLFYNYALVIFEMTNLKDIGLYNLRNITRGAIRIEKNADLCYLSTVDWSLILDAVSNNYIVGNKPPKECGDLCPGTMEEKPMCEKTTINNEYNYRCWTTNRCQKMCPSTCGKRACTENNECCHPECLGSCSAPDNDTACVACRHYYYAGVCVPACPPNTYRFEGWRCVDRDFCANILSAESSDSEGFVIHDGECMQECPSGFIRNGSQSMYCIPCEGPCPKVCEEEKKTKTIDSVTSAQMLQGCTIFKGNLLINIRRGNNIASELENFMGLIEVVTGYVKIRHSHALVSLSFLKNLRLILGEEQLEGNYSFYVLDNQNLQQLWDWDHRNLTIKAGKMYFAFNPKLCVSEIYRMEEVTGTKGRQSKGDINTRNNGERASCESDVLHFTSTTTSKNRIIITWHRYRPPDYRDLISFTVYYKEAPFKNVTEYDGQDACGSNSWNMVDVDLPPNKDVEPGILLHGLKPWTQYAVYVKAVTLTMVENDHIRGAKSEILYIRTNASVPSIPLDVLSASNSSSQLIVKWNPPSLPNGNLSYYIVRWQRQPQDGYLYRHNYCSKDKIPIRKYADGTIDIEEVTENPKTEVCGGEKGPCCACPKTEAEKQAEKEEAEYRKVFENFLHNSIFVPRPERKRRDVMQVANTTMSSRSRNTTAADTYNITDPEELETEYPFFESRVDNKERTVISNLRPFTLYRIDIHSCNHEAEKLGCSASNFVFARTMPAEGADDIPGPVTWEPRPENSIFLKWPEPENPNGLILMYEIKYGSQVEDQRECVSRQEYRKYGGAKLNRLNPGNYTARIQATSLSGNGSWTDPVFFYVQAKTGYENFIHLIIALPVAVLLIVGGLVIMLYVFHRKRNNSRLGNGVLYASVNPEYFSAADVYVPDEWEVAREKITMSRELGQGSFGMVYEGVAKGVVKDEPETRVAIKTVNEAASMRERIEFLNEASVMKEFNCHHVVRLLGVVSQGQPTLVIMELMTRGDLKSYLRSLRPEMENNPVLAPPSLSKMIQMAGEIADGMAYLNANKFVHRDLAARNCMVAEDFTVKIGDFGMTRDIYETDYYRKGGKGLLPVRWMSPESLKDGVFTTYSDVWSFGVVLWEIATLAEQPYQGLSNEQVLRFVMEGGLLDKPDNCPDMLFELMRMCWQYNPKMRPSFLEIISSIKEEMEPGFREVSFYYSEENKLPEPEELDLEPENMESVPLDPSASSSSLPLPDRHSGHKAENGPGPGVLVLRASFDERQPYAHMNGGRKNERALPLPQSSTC

Biological target: T1, IGF-1R kinase (Homo sapiens, UniProt P08069)
T1 construct: Kinases are expressed as either kinase domains or full length constructs fused to glutathione S-transferase (GST) or polyHistidine tagged fusion proteins; made in house
Experiment: Kinase inhibition (33P transfer from ATP to plate-bound poly(Glu, Tyr) substrate)
Type: biochemical
Conditions: read-out: inhibited IGF-1R kinase (IC50)

Row | Compound | pIC50
1 | COc1cc(Nc2nccc(Nc3cc(C(C)(C)C)on3)n2)cc(OC)c1OC [Example 1, N^4-(5-tert-Butylisoxazol-3-yl)-N^2-(3,4,5-trimethoxy-phenyl)-pyrimidine-2,4-diamine] | > 7.00
2 | COc1cc(C)c(Nc2nccc(Nc3cc(C(C)(C)C)on3)n2)cc1OC [Example 2, N^4(5-t-Butyl-isoxazol-3-yl)-N^2-(4,5-dimethoxy-2-methyl-phenyl)-pyrimidine-2,4-diamine] | > 7.00
3 | CC(C)(C)c1cc(Nc2ccnc(Nc3ccc4[nH]ncc4c3)n2)no1 [Example 3, N^4-(5-t-Butyl-isoxazol-3-yl)-N^2-(1H-indazol-5-yl)-pyrimidine-2,4-diamine] | > 7.00
4 | COc1cc(Nc2nccc(Nc3cc(-c4ccccc4)on3)n2)ccc1N1CCOCC1 [Example 14, N^2-(3-Methoxy-4-morpholin-4-yl-phenyl)-N^4-(5-phenyl-isoxazol-3-yl)-pyrimidine-2,4-diamine] | > 7.00
5 | COc1cc(Nc2nccc(Nc3cc(-c4ccccc4)on3)n2)cc(OC)c1OC [Example 15, N^2-(3,4,5-Trimethoxyphenyl)-N^4-(5-phenylisoxazol-3-yl)-2,4-pyrimidinediamine] | > 7.00
6 | COc1cc(C)c(Nc2nccc(Nc3cc(-c4ccccc4)on3)n2)cc1OC [Example 16, N^2-(2-methyl-4,5-dimethoxyphenyl)-N^4-(5-phenylisoxazol-3-yl)-2,4-pyrimidinediamine] | > 7.00
7 | COc1cc(C)c(Nc2nccc(Nc3cc(C45CC6CC(CC(C6)C4)C5)on3)n2)cc1OC [Example 18, N^2-(4,5-Dimethoxy-2-methylphenyl)-N^4-(5-adamantylisoxazol-3-yl)-2,4-pyrimidinediamine] | > 7.00
